This is an account of results in article PMC8805577.

Amino acid sequences for entries named in this document (tags omitted). A change or cut given only in a name is not applied to a line headed by its entry.
UniProt P15976: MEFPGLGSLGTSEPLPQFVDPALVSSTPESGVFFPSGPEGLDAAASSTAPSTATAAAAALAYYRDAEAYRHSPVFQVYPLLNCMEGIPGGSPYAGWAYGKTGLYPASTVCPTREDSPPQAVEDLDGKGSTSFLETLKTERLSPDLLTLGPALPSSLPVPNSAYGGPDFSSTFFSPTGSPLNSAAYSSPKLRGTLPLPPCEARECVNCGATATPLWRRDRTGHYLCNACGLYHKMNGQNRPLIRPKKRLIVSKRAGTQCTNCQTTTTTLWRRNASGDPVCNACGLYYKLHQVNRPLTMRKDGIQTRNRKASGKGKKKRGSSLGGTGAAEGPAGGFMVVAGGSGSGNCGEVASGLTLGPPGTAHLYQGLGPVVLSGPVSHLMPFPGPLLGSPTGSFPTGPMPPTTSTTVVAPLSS

Results are given in words; binding and its absence hold for the method and conditions named. In cells and extracts the contact can be indirect. Some entries that bind do so weakly or less than the wild type. Where a sequence is shown, tags or fusion partners need not be part of it.

The target of assay [1] is T1, FLAG-nSREBP2 (1-468aa), active (proteolytically activated) human SREBP2 (human) (UniProt Q12772).
T1 sequence: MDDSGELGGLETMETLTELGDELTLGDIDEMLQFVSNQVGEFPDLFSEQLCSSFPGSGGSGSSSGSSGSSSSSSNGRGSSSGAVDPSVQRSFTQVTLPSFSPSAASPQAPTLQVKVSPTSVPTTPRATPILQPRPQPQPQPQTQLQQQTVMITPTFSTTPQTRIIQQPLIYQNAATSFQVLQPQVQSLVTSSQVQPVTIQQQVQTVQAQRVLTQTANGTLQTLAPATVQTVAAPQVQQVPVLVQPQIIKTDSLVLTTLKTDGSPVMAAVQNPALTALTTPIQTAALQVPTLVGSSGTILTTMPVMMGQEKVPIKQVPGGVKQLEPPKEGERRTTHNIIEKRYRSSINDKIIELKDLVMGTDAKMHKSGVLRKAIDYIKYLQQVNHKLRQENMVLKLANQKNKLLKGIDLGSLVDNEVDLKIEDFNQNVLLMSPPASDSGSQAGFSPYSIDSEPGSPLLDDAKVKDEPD
Nature of the assay: co-IP; truncated GATA1 with FLAG-nSREBP2 (1-468aa), and truncated FLAG-nSREBP2 with GATA1; cells not stated for these panels.

The target of assay [2] is T1, FLAG-nSREBP2 (1-468aa), active (proteolytically activated) human SREBP2 (human). Nature of the assay: co-IP; reciprocal co-IP of exogenous FLAG-nSREBP2 and GFP-GATA1 in 293T cells; Pierce IP lysis buffer, beads conjugated with antibodies, 4 °C for 12 h, five washes, immunoblot.
Assay [3] has as its target T2, FLAG-SREBP2 (292-468 aa), truncated FLAG-nSREBP2 (human) (UniProt Q12772).
T2 sequence: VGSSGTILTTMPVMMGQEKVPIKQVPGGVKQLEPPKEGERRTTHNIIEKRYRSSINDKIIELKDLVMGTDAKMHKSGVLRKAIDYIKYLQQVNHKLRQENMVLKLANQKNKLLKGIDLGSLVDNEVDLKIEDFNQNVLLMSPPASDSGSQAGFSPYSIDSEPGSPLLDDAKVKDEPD
Put plainly: co-IP; truncated GATA1 with FLAG-nSREBP2 (1-468aa), and truncated FLAG-nSREBP2 with GATA1; cells not stated for these panels.

Assay [4] addresses GFP-GATA1 full length (FL) (human) (UniProt P15976). Nature of the assay: co-IP; reciprocal co-IP of exogenous FLAG-nSREBP2 and GFP-GATA1 in 293T cells; Pierce IP lysis buffer, beads conjugated with antibodies, 4 °C for 12 h, five washes, immunoblot.

Turning to “GFP-GATA1 ZF (zinc finger domains) (from UniProt P15976 199-318) (domain or fragment)”, the binding entry in assay [1] was “binds”.

As to “GFP-GATA1 full length (FL) (from UniProt P15976 1-413)”, the binding entry in assay [2] and in assay [3] was “binds” throughout.

B1: FLAG-nSREBP2 (1-468aa), active (proteolytically activated) human SREBP2 (domain or fragment, UniProt Q12772 1-468)
chain: T1 sequence
With B1, in assay [4], the binding entry was “binds”.
